According to publication PMC8632963:
No constants are given. Whether binding was seen depends on the method and setting. Binding seen in cells or lysates may run through a third protein. Some binding calls cover weakened binding; strength is not graded here. Tags and fused reporters may be left off the sequences shown.

Protein sequences, listed by entry. Tags and fused reporters are not part of them.
UniProt Q9H813: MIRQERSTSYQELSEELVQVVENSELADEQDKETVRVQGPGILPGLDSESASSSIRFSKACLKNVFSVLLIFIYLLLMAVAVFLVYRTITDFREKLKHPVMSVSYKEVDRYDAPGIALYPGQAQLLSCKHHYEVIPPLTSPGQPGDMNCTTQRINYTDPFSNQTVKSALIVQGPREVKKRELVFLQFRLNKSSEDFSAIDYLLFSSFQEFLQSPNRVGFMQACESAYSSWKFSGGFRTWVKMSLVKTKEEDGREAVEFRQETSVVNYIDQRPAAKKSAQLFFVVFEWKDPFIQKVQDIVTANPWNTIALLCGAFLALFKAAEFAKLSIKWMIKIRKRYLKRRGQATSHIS

T1: GST-RDH14 (retinol dehydrogenase 14, wild type) (human) (UniProt Q9HBH5)
T1 sequence: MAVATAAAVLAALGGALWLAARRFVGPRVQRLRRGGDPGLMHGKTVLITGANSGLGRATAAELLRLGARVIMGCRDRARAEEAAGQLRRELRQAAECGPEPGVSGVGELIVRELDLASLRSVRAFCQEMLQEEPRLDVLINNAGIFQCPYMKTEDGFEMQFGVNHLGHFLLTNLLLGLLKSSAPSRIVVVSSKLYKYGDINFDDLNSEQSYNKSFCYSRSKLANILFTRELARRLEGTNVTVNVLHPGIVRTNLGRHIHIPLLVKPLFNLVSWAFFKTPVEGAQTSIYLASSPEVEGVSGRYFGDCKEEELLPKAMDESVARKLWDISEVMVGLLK


Target: T1, GST-RDH14 (retinol dehydrogenase 14, wild type) (human)
Test: pull-down; GST fusion baits from E. coli immobilised on glutathione agarose resin (2 h, 4 °C), washed 5 times; 800 µL SK-N-SH cell lysate as prey, overnight at 4 °C; eluted with 10 mM glutathione; western blot with anti-TMEM206 or anti-FAM5B antibody; only the target purified

Row | binding | Molecule
1 | binds | proton-activated chloride channel 1 (PACC1/TMEM206) (from UniProt Q9H813 1-350)
2 | no binding | bone morphogenic protein/retinoic acid inducible neural-specific protein 2 (BRINP2) (protein, UniProt Q9C0B6 34-783) VSATAAAVVPEQHASVAGQHPLDWLLTDRGPFHRAQEYADFMERYRQGFTTRYRIYREFARWKVNNLALERKDFFSLPLPLAPEFIRNIRLLGRRPNLQQVTENLIKKYGTHFLLSATLGGEESLTIFVDKQKLGRKTETTGGASIIGGSGNSTAVSLETLHQLAASYFIDRESTLRRLHHIQIATGAIKVTETRTGPLGCSNYDNLDSVSSVLVQSPENKVQLLGLQVLLPEYLRERFVAAALSYITCSSEGELVCKENDCWCKCSPTFPECNCPDADIQAMEDSLLQIQDSWATHNRQFEESEEFQALLKRLPDDRFLNSTAISQFWAMDTSLQHRYQQLGAGLKVLFKKTHRILRRLFNLCKRCHRQPRFRLPKERSLSYWWNRIQSLLYCGESTFPGTFLEQSHSCTCPYDQSSCQGPIPCALGEGPACAHCAPDNSTRCGSCNPGYVLAQGLCRPEVAESLENFLGLETDLQDLELKYLLQKQDSRIEVHSIFISNDMRLGSWFDPSWRKRMLLTLKSNKYKPGLVHVMLALSLQICLTKNSTLEPVMAIYVNPFGGSHSESWFMPVNEGSFPDWERTNVDAAAQCQNWTITLGNRWKTFFETVHVYLRSRIKSLDDSSNETIYYEPLEMTDPSKNLGYMKINTLQVFGYSLPFDPDAIRDLILQLDYPYTQGSQDSALLQLIELRDRVNQLSPPGKVRLDLFSCLLRHRLKLANNEVGRIQSSLRAFNSKLPNPVEYETGKLCS
